Measurements as given in article PMC3569449.
These are yes or no findings as the source states them, for the method shown.

Amino acid sequences for entries named in this document (tags omitted). A change or cut given only in a name is not applied to a line headed by its entry.
UniProt Q9UI12: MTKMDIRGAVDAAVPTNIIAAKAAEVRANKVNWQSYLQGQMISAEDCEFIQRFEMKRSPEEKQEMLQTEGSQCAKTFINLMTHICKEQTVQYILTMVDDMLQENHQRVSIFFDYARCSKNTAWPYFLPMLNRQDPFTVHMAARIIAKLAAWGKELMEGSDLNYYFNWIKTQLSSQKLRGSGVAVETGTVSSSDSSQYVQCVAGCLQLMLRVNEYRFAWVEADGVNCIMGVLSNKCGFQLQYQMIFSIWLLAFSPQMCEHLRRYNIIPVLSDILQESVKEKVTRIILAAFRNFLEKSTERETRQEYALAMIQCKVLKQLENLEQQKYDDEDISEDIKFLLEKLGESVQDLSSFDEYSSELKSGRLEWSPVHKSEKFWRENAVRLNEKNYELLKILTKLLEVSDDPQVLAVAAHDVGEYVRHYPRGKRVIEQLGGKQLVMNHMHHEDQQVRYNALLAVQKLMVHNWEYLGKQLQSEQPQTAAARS
UniProt P36543: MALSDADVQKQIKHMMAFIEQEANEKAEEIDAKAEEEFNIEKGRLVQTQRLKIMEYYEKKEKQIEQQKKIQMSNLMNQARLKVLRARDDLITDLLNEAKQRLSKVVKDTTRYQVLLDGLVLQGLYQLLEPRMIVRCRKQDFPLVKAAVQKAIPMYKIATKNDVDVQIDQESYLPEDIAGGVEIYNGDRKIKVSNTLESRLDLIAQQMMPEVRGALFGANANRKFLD

Molecular target: Human V-ATPase subunit H (non-tagged) (human) (UniProt Q9UI12)
Assay: condition: only with equimolar C1 (E1G1:C1:H 1:1:1); SEC; equimolar (1:1:1) mixture of E1G1, C1 and H; Superdex 200, conditions as for the other gel filtrations; both purified

binding: no binding
Substance: E1G1 heterodimer of human V-ATPase (subunits E1 and G1, co-expressed and co-purified) (from UniProt P36543 1-226; O75348 1-118) (complex)
